For at least one compound, name, drawing or mass did not settle the structure.
Tested on: mixed lymphocyte reaction (PBMC with allogeneic PBMC or Eppstein-Barr Virus-transformed human B cells as stimulator cells)
Experiment: Mixed lymphocyte reaction (MLR) assay
Type: cell-based
Conditions: lowest concentration giving 50% suppression of the MLR; [3H]-thymidine
Protocol: Pteridine derivatives were first dissolved (10 mM) in dimethylsulfoxide (hereinafter referred as DMSO) and further diluted in culture medium before use for the following in vitro experiments. The commercially available culture medium consisted of RPMI-1640+10% foetal calf serum (FCS). Some pteridine derivatives described in the previous examples (as indicated in table 1) were tested in the following mixed lymphocyte reaction (MLR) assay.
Peripheral blood mononuclear cells (hereinafter referred as PBMC) were isolated from heparinized peripheral blood by density gradient centrifugation over Lymphoprep (Nycomed, Maorstua, Norway). Allogeneic PBMC or Eppstein-Barr Virus-transformed human B cells [commercially available under the trade name RPM11788 (ATCC name CCL156)] which strongly express B7-1 and B7-2 antigens were used as stimulator cells after irradiation with 30 Gy. MLR was performed in triplicate wells. After 5 days incubation at 37° C., 1 μCi [^3H]-thymidine was added to each cup. After a further 16 hours incubation, cells were harvested and counted in a […]. Inhibition of proliferation by a compound (drug) described in some of the previous examples was counted using the formula: [formula] wherein cpm is the thymidine count per minute. […]

With `COc1ccc(-c2cnc3nc(N)nc(N4CCN(C(=O)[C@@H](N)Cc5cc6ccccc6[nH]5)CC4)c3n2)cc1OC` [Example 63, 2-amino-4-[[N-2-(S)-amino-3-(indol-2-yl)propionyl]-piperazin-1-yl]-6-(3,4-dimethoxy-phenyl)pteridine] the IC50 was 10 µM.

Reference: patent publication US20070032477A1, “Pteridine derivatives useful for making pharmaceutical compositions” (priority 2003, published 2007)
